The list shows a part of the results.
What was measured:
Test in all cases: log2 fold change, soluble protein after heating vs DMSO (PISA); higher = thermal stabilisation; K562 lysate, 10 uM; active = over 0.2 and 3.5 SD of the protein, either way, in both replicates (recomputed)
[1] = compound: Cc1cn(-c2cc(NC(=O)c3ccc(C)c(Nc4nccc(-c5cccnc5)n4)c3)cc(C(F)(F)F)c2)cn1 [nilotinib]
Summary of the method: (§1)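 The values are log-two fold changes in thermal stability compared with solvent controls and come from duplicates. They were obtained by TMTpro 16plex LC-MS/MS, with channel sums equalised, on the supernatant after 21,000xg for 90 min. That supernatant came from crude K562 extract at 1 mg/mL protein treated with 10 μM compound for 30 min, heated for 3 min across 48°C-58°C, pooled and brought to 0.5% NP-40 at 4°C.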

By UniProt entry, the sequences of proteins in these tests, tags left out. Where a name states a change or a piece, a line headed by the entry shows the natural chain unless it says otherwise.
UniProt Q15813: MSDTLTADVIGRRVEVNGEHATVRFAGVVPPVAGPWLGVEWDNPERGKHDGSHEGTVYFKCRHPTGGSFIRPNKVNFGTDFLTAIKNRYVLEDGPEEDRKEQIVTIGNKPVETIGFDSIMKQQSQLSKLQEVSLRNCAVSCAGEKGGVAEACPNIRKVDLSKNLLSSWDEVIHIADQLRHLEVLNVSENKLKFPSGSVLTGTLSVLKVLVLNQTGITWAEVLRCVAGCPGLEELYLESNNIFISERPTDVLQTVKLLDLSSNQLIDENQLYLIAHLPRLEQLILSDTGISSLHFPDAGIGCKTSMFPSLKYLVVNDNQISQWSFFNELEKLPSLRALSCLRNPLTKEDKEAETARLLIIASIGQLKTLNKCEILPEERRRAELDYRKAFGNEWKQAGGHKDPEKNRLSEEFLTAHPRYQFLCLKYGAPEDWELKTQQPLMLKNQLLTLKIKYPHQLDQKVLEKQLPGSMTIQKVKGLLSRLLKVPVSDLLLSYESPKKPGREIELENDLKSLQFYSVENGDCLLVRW
UniProt Q9NUJ3: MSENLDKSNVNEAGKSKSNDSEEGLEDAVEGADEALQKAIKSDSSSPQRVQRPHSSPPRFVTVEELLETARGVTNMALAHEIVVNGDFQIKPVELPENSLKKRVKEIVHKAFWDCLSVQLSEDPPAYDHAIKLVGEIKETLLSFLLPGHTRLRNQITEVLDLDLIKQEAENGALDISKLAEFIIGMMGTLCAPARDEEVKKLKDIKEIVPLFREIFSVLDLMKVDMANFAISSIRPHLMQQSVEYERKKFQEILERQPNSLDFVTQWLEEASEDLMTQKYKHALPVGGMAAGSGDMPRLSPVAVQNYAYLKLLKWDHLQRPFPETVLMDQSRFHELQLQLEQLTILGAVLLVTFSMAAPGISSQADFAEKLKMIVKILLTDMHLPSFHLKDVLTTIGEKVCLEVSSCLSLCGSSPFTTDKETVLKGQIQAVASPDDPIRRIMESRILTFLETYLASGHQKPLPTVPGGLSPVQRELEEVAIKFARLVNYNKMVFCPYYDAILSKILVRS
UniProt P02786, whole entry, looked up: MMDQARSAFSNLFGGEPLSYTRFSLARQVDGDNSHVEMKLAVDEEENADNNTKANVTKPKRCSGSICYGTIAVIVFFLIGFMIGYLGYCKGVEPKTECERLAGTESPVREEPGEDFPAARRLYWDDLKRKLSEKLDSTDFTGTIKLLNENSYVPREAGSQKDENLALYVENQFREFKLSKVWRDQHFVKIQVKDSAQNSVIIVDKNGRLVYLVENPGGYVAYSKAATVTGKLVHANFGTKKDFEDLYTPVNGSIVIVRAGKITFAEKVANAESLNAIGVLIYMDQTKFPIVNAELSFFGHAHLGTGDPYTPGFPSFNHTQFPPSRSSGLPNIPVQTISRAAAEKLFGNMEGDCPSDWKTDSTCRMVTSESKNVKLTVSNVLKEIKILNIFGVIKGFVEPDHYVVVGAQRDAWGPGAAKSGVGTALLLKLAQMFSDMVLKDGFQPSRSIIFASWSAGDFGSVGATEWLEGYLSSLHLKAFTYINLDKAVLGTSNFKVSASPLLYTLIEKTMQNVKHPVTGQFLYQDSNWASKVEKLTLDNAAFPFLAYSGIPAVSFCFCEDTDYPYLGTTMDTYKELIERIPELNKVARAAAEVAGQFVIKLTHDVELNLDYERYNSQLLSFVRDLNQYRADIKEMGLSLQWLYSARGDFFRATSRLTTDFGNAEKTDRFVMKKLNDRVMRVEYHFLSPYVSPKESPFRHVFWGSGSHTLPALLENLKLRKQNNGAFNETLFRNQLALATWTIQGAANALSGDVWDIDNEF
UniProt Q96QE5: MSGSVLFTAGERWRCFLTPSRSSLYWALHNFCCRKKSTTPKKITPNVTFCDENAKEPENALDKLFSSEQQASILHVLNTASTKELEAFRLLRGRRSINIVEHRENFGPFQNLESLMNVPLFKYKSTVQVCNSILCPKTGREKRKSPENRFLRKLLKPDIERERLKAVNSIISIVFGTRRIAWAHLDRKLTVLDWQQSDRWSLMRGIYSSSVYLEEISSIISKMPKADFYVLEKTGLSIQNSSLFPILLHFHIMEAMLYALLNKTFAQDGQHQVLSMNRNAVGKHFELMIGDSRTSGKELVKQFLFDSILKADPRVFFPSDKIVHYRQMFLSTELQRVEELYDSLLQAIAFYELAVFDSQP
UniProt Q9ULP9: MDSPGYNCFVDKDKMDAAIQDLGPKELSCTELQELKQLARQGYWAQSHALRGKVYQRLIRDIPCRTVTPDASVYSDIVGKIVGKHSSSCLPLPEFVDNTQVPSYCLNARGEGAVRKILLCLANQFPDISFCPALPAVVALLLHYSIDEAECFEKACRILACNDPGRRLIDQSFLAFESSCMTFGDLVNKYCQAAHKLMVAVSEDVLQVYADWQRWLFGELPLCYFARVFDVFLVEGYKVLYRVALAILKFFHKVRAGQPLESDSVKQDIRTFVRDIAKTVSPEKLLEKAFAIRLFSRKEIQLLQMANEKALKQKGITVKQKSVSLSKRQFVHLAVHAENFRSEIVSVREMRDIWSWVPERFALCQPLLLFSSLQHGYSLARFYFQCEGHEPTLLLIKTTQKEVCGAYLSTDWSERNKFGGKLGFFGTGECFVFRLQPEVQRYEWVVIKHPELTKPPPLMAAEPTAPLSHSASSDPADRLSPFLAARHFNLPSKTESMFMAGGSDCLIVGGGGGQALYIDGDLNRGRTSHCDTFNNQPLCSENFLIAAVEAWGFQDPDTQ
UniProt P62380: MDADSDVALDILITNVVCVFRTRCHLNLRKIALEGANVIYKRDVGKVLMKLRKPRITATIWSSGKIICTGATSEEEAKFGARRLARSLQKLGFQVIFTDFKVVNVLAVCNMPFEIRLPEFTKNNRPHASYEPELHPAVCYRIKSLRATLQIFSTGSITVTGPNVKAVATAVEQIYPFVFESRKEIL
UniProt Q86VP1, whole entry, looked up: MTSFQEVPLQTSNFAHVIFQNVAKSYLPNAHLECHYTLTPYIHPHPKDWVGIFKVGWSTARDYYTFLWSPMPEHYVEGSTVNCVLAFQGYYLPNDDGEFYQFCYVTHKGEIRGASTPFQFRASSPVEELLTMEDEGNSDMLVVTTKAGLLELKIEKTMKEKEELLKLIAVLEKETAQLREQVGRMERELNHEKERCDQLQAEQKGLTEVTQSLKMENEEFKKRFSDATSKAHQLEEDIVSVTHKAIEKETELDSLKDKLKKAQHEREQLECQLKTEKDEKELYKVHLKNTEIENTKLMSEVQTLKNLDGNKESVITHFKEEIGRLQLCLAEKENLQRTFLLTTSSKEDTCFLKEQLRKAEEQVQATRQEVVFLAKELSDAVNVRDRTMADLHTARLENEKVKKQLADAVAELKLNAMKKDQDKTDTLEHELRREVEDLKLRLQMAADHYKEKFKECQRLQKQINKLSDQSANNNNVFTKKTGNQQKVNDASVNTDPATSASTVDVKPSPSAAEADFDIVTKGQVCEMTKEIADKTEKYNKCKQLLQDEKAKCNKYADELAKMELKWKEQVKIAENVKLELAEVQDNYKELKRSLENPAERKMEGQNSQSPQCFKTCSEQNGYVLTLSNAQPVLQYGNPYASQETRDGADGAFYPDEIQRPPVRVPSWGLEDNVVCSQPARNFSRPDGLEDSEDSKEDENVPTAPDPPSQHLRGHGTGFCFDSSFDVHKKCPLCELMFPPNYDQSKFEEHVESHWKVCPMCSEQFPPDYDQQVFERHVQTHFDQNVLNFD
UniProt Q15633: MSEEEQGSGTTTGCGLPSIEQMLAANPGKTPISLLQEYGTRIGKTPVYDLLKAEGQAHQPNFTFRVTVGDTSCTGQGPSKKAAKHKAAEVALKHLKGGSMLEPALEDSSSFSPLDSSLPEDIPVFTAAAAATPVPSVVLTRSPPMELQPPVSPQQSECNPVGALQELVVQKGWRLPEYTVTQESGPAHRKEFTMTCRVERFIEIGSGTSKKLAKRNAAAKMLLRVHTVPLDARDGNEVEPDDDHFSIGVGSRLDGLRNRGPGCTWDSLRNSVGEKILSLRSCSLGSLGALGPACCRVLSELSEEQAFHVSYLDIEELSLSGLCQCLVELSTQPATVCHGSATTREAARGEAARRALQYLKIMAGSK
UniProt P15923: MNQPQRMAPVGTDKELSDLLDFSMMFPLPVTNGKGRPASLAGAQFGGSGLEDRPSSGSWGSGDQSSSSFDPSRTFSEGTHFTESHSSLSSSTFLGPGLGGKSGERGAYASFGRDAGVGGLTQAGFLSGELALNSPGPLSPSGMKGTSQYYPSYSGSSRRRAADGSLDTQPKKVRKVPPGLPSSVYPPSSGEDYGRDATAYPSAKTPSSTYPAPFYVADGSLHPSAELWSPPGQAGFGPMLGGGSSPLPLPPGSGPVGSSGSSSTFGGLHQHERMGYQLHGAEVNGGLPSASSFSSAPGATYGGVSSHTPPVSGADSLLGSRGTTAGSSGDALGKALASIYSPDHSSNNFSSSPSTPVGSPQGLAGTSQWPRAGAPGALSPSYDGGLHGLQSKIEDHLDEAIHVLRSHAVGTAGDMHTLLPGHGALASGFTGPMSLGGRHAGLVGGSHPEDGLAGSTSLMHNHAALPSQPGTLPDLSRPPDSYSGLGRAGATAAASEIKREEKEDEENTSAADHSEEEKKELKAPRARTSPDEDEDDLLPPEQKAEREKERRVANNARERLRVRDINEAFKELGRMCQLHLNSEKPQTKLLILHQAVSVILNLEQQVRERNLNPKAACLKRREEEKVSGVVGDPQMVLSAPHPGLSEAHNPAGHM
UniProt Q9C0B7: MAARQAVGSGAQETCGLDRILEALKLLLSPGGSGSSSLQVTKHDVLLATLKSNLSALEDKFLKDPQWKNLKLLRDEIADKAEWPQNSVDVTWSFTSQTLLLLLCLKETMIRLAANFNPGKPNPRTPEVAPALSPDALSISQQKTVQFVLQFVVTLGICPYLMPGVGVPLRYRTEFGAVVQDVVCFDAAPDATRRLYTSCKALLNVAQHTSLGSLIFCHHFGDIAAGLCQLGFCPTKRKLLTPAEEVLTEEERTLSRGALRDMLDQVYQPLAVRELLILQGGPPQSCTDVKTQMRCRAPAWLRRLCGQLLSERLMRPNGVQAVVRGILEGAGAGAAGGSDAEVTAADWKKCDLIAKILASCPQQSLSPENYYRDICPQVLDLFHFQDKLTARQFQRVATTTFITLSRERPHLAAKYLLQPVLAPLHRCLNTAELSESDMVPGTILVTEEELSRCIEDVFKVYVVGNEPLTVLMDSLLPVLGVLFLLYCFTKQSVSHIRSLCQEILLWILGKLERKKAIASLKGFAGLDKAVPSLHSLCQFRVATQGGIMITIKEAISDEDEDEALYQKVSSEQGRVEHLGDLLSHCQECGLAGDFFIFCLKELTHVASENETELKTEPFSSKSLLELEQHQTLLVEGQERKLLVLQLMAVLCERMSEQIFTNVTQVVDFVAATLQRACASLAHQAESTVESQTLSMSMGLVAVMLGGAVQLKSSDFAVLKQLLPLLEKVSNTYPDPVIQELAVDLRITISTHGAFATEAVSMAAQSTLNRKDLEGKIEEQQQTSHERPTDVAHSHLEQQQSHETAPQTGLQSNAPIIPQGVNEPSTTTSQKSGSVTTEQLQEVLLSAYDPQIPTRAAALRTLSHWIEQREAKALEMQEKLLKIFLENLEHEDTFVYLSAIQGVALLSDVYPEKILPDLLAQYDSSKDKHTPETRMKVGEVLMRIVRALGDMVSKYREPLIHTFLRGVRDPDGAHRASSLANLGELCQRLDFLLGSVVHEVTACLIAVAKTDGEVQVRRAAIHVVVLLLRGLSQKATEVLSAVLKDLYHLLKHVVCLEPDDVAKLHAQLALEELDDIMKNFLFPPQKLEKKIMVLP
UniProt Q9P2M4: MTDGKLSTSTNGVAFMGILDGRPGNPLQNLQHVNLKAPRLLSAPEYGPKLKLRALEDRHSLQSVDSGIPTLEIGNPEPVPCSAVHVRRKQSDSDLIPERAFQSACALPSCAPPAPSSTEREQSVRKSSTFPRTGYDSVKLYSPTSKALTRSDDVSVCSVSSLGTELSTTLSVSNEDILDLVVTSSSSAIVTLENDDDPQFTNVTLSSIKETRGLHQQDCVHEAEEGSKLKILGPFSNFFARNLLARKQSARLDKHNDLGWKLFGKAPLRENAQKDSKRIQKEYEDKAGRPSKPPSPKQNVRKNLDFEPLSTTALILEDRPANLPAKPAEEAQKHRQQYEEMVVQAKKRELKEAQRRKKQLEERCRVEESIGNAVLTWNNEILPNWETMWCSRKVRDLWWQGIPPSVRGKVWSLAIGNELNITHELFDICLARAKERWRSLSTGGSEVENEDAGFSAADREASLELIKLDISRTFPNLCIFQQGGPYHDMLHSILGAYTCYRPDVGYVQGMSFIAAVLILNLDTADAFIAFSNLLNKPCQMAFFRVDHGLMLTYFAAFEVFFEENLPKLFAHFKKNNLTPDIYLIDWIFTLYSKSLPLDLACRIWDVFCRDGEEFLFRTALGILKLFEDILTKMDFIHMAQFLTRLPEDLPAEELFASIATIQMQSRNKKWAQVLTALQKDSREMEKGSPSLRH

[2] = compound: Cc1nc(Nc2n[nH]c3c2CN(C(=O)N[C@H](CN(C)C)c2ccccc2)C3(C)C)c2sccc2n1
Summary of the method: as §1

[3] = compound: Cc1nc(Nc2ncc(C(=O)Nc3c(C)cccc3Cl)s2)cc(N2CCN(CCO)CC2)n1 [dasatinib]
Summary of the method: as §1

[4] = compound: Cc1ncc(-c2ccnc(Nc3ccc(S(C)(=O)=O)cc3)n2)n1C(C)C
Summary of the method: as §1

[5] = compound: Cn1cc(-c2ccc3c(c2)CCN3C(=O)Cc2cccc(C(F)(F)F)c2)c2c(N)ncnc21
Summary of the method: as §1

[6] = compound: Cn1cc(CNCC2CCN(c3ncc(C(=O)NO)cn3)CC2)c2ccccc21 [quisinostat]
Summary of the method: as §1

[7] = compound: Cn1cncc1[C@@](N)(c1ccc(Cl)cc1)c1ccc2c(c1)c(-c1cccc(Cl)c1)cc(=O)n2C [tipifarnib]
Summary of the method: as §1

[8] = compound: NC(=O)Nc1cc(-c2cccc(F)c2)sc1C(=O)N[C@H]1CCCNC1
Summary of the method: as §1

[9] = compound: NC(=O)c1cnc(N[C@@H]2CCCC[C@@H]2N)nc1Nc1cccc(-n2nccn2)c1
Summary of the method: as §1

[10] = compound: NC1(c2ccc(-c3nc4ccn5c(=O)[nH]nc5c4cc3-c3ccccc3)cc2)CCC1
Summary of the method: as §1

[11] = compound: NCC(=O)Nc1ccc(-n2nc(C(F)(F)F)cc2-c2ccc3c(ccc4ccccc43)c2)cc1
Summary of the method: as §1

[12] = compound: O=C(CCCCCCC(=O)Nc1ccccc1)NO [vorinostat]
Summary of the method: as §1

[13] = compound: O=C(O)c1ccc2c(c1)nc(Nc1cccc(Cl)c1)c1ccncc12 [silmitasertib]
Summary of the method: as §1

[14] = compound: O=C1NC(=O)C(c2cnc3ccccn23)=C1c1cn2c3c(cc(F)cc13)CN(C(=O)N1CCCCC1)CC2
Summary of the method: as §1

[15] = compound: c1cn2cc(-c3ccc4cn[nH]c4c3)nc(Nc3ccc(N4CCOCC4)cc3)c2n1 [entospletinib]
Summary of the method: as §1

Measured: log2 fold change

TBCE (UniProt Q15813)
inactive: [1] -0.001 | [2] -0.008 | [3] -0.012 | [4] -0.01 | [5] 0.049 | [6] -0.025 | [7] -0.005 | [8] 0.033 | [9] 0.015 | [10] -0.041 | [11] -0.029 | [13] 0.018 | [14] -0.025 | [15] 0.021
active: [12] -0.27

TCEA1 (UniProt P23193)
inactive: [1] -0.004 | [2] 0.021 | [3] 0.022 | [4] 0.043 | [5] -0.021 | [6] 0.058 | [7] 0 | [8] -0.028 | [9] -0.019 | [10] 0.002 | [11] -0.016 | [12] 0.1 | [13] -0.012 | [14] -0.015 | [15] 0.02

TCP11L1 (UniProt Q9NUJ3)
inactive: [1] 0.062 | [2] -0.114 | [3] -0.034 | [4] -0.035 | [5] 0.01 | [6] -0.055 | [7] -0.003 | [8] 0.051 | [9] -0.022 | [10] 0.028 | [11] 0 | [13] -0.043 | [14] 0.006 | [15] 0.019
active: [12] -0.317

TBC1D8B (UniProt Q0IIM8)
inactive: [1] 0.021 | [2] -0.035 | [3] 0.01 | [4] 0.015 | [5] -0.042 | [6] -0.061 | [7] 0.036 | [8] 0.034 | [9] -0.042 | [10] -0.034 | [11] 0.036 | [12] 0.147 | [13] -0.037 | [14] 0.011 | [15] 0.131

TBL1X (UniProt O60907)
inactive: [1] 0.012 | [2] 0.026 | [3] -0.006 | [4] -0.012 | [5] 0.036 | [6] 0.004 | [7] 0.013 | [8] -0.003 | [9] 0.015 | [10] 0.056 | [11] -0.037 | [12] -0.079 | [13] 0.023 | [14] -0.05 | [15] -0.024

TFDP2 (UniProt Q14188)
inactive: [1] 0.049 | [2] -0.019 | [3] 0.13 | [4] -0.056 | [5] -0.048 | [6] -0.129 | [7] -0.157 | [8] -0.07 | [9] 0.111 | [10] -0.003 | [11] -0.001 | [12] -0.314 | [13] -0.083 | [14] -0.014

TFRC (UniProt P02786)
inactive: [1] 0.033 | [2] -0.02 | [3] 0 | [4] -0.006 | [5] -0.013 | [6] 0.003 | [7] -0.006 | [8] -0.003 | [9] -0.019 | [10] 0.019 | [11] 0.004 | [12] 0.13 | [13] -0.014 | [14] -0.013 | [15] 0.005

TEFM (UniProt Q96QE5)
inactive: [1] 0.025 | [2] -0.012 | [3] 0.067 | [4] 0.007 | [5] 0.01 | [6] -0.008 | [7] -0.02 | [8] 0.027 | [9] 0.039 | [10] 0.049 | [11] 0.115 | [12] -0.102 | [13] 0.016 | [14] -0.033 | [15] 0.04

TAF7 (UniProt Q15545)
inactive: [1] 0.003 | [2] -0.009 | [3] -0.001 | [4] -0.042 | [5] 0.019 | [6] -0.018 | [7] -0.036 | [8] 0.002 | [9] 0.044 | [10] 0.006 | [11] -0.005 | [12] 0.07 | [13] -0.025 | [14] -0.036 | [15] -0.014

TBC1D24 (UniProt Q9ULP9)
inactive: [1] -0.021 | [2] 0.031 | [3] -0.098 | [4] -0.007 | [5] 0.006 | [6] -0.068 | [7] -0.038 | [8] 0.056 | [9] 0 | [10] -0.05 | [11] 0.023 | [12] -0.256 | [13] 0.038 | [14] -0.018 | [15] 0.057

TBPL1 (UniProt P62380)
inactive: [1] 0.061 | [2] -0.026 | [3] 0.014 | [4] -0.004 | [5] -0.071 | [6] -0.002 | [7] -0.001 | [8] 0.059 | [9] -0.05 | [10] -0.038 | [11] 0.011 | [12] -0.108 | [13] 0.014 | [14] 0.053 | [15] -0.013

TBC1D15 isoform 3 (UniProt Q8TC07)
inactive: [1] -0.021 | [2] 0.021 | [3] -0.041 | [4] -0.001 | [5] 0.02 | [6] -0.072 | [7] -0.024 | [8] 0.005 | [9] -0.008 | [10] -0.006 | [11] -0.013 | [12] -0.118 | [13] 0.035 | [14] -0.027 | [15] 0.018

TAX1BP1 (UniProt Q86VP1)
inactive: [1] -0.041 | [2] 0.013 | [3] -0.021 | [4] 0.007 | [5] 0.007 | [6] -0.018 | [7] -0.014 | [8] 0.021 | [9] 0.018 | [10] 0.032 | [11] -0.015 | [12] -0.023 | [13] 0.017 | [14] 0.009 | [15] 0.073

TBC1D22A (UniProt Q8WUA7)
inactive: [1] 0 | [2] 0.014 | [3] -0.004 | [4] -0.031 | [5] 0.039 | [6] 0.014 | [7] 0.021 | [8] 0.004 | [9] 0.003 | [10] 0.018 | [11] -0.002 | [12] 0.09 | [13] -0.001 | [14] -0.029 | [15] 0.027

TARBP2 (UniProt Q15633)
inactive: [1] 0.003 | [2] 0.019 | [3] -0.038 | [4] 0.005 | [5] -0.056 | [6] -0.106 | [7] -0.067 | [8] 0.065 | [9] -0.029 | [10] 0.056 | [11] -0.017 | [13] 0.024 | [14] -0.03 | [15] -0.002
active: [12] -0.519

TBC1D17 (UniProt Q9HA65)
inactive: [1] 0.042 | [2] -0.043 | [3] 0.001 | [4] -0.006 | [5] -0.032 | [6] 0.039 | [7] 0.025 | [8] 0.007 | [9] 0.001 | [10] 0.024 | [11] -0.141 | [12] -0.055 | [13] -0.012 | [14] -0.06 | [15] -0.027

TBCC (UniProt Q15814)
inactive: [1] -0.022 | [2] -0.012 | [3] -0.013 | [4] 0.036 | [5] -0.005 | [6] -0.01 | [7] 0.018 | [8] -0.008 | [9] 0.006 | [10] -0.017 | [11] -0.048 | [12] 0.029 | [13] 0.029 | [14] -0.005 | [15] 0.007

TAF8 isoform 2 (UniProt Q7Z7C8)
inactive: [1] -0.044 | [2] 0.087 | [3] -0.101 | [4] -0.002 | [5] -0.068 | [6] 0.017 | [7] -0.113 | [8] -0.017 | [9] 0.044 | [10] -0.001 | [11] 0.009 | [12] 0.054 | [13] 0.04 | [14] -0.018 | [15] -0.063

TCF3 (UniProt P15923)
inactive: [1] 0.028 | [2] -0.118 | [3] -0.018 | [4] -0.057 | [5] -0.139 | [6] 0.006 | [7] -0.245 | [8] 0.055 | [9] -0.019 | [10] -0.003 | [11] -0.007 | [12] -0.141 | [13] -0.031 | [14] 0 | [15] -0.03

TANGO6 (UniProt Q9C0B7)
inactive: [1] 0.042 | [2] -0.056 | [3] -0.006 | [4] 0.019 | [5] 0.025 | [6] -0.056 | [7] 0.044 | [8] 0.046 | [9] -0.037 | [10] -0.001 | [11] 0.007 | [13] 0.019 | [14] -0.037 | [15] -0.009
active: [12] -0.389

Quoted from the entries so far (2 entries):
TBCC (UniProt Q15814)
inactive: [1] -0.022 | [2] -0.012 | [3] -0.013 | [4] 0.036 | [5] -0.005 | [6] -0.01 | [7] 0.018 | [8] -0.008 | [9] 0.006 | [10] -0.017 | [11] -0.048 | [12] 0.029 | [13] 0.029 | [14] -0.005 | [15] 0.007

TAF8 isoform 2 (UniProt Q7Z7C8)
inactive: [1] -0.044 | [2] 0.087 | [3] -0.101 | [4] -0.002 | [5] -0.068 | [6] 0.017 | [7] -0.113 | [8] -0.017 | [9] 0.044 | [10] -0.001 | [11] 0.009 | [12] 0.054 | [13] 0.04 | [14] -0.018 | [15] -0.063

Going on with the list.

TBC1D14 (UniProt Q9P2M4)
inactive: [1] 0.024 | [2] 0.047 | [3] -0.042 | [4] -0.079 | [5] -0.146 | [6] -0.151 | [7] -0.125 | [8] -0.027 | [9] -0.019 | [10] 0.114 | [11] -0.02 | [12] -0.169 | [13] 0.025 | [14] -0.076 | [15] -0.022

Source: the supplement of paper PMC10849652
